Reference: patent US12698289B2, “Solid forms of pharmaceutically acceptable salts of (S)-(2-ethyl-5-fluoro-4-hydroxyphenyl)-1H-indazol-3-yl)-4,6-dihydropyrrolo[3,4-d]imidazol-5(1H)-yl)(3-hydroxypyrrolidin-1-yl)methanone as JAK inhibitors” (HENAN MEDINNO PHARMACEUTICAL TECHNOLOGY CO., LTD., priority 2019, dated 2026)

System: human T cells
Assay: IL-2 induced human T cell proliferation assay (Celltiter Glo)
Conditions: HT, 72 h, read-out: IC50 (nM), human T cell proliferation

For `C[C@@H]1CCN(C(=O)CC#N)C[C@@H]1N(C)c1ncnc2[nH]ccc12` [Tofacitinib], the IC50 was 21.7 nM.
